These results are taken from article PMC6503738.

One test addresses T1, FLAG-tagged TBK1 (UniProt Q9UHD2).
T1 sequence: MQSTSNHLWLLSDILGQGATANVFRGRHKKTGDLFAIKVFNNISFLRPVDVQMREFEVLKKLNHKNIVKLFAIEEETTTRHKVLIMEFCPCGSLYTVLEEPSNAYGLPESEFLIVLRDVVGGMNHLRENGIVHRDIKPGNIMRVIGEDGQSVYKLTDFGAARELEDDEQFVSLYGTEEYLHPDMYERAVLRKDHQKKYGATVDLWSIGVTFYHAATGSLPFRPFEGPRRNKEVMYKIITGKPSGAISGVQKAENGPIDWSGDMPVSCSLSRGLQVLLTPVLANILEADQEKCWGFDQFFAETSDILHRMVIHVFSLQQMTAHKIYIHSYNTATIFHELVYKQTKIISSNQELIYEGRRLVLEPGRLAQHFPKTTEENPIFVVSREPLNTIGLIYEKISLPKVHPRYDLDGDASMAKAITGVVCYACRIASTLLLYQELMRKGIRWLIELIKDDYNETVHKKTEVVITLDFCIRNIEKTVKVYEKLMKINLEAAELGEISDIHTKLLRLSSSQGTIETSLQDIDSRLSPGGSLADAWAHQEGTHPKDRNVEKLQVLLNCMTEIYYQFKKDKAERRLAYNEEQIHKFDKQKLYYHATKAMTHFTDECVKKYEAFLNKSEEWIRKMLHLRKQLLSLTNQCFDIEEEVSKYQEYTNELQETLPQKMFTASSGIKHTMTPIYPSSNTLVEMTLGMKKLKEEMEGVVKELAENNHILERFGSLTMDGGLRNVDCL
Nature of the test: co-IP; FLAG-TBK1 and GFP-PI31 expressed in hNOD2 HEK293 cells, with or without MDP; lysate immunoprecipitated with anti-Flag, blotted with anti-GFP.

For the next test, the target named is T2, HA-tagged PI31 (UniProt Q92530).
T2 sequence: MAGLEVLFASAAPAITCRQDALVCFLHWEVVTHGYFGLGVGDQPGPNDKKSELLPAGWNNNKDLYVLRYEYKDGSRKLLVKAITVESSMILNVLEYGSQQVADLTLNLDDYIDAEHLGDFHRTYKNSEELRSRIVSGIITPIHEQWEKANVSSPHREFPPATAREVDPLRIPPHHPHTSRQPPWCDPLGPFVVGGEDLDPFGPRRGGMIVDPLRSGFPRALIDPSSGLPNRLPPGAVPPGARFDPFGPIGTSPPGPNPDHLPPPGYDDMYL
The experiment in a line: co-IP; HA-PI31 and FLAG-TBK1 co-expressed in HEK293 cells expressing human NOD2, with or without MDP for 30 min; lysate (1% TritonX-100, 150 mM NaCl, Tris pH 8.0) immunoprecipitated with anti-HA, blotted with anti-Flag.

These are yes or no findings as the source states them, for the method shown. Binding seen in cells or lysates may run through a third protein. Some entries that bind do so weakly or less than the wild type. Sequences can lack the tags named with a protein.

B1: GFP-PI31 (protein, UniProt Q92530 1-271)
chain: MAGLEVLFASAAPAITCRQDALVCFLHWEVVTHGYFGLGVGDQPGPNDKKSELLPAGWNNNKDLYVLRYEYKDGSRKLLVKAITVESSMILNVLEYGSQQVADLTLNLDDYIDAEHLGDFHRTYKNSEELRSRIVSGIITPIHEQWEKANVSSPHREFPPATAREVDPLRIPPHHPHTSRQPPWCDPLGPFVVGGEDLDPFGPRRGGMIVDPLRSGFPRALIDPSSGLPNRLPPGAVPPGARFDPFGPIGTSPPGPNPDHLPPPGYDDMYL
Regarding B1, the binding result with FLAG-tagged TBK1 is on record as “binds”.

B2: FLAG-tagged TBK1 (enzyme, UniProt Q9UHD2 1-729)
chain: MQSTSNHLWLLSDILGQGATANVFRGRHKKTGDLFAIKVFNNISFLRPVDVQMREFEVLKKLNHKNIVKLFAIEEETTTRHKVLIMEFCPCGSLYTVLEEPSNAYGLPESEFLIVLRDVVGGMNHLRENGIVHRDIKPGNIMRVIGEDGQSVYKLTDFGAARELEDDEQFVSLYGTEEYLHPDMYERAVLRKDHQKKYGATVDLWSIGVTFYHAATGSLPFRPFEGPRRNKEVMYKIITGKPSGAISGVQKAENGPIDWSGDMPVSCSLSRGLQVLLTPVLANILEADQEKCWGFDQFFAETSDILHRMVIHVFSLQQMTAHKIYIHSYNTATIFHELVYKQTKIISSNQELIYEGRRLVLEPGRLAQHFPKTTEENPIFVVSREPLNTIGLIYEKISLPKVHPRYDLDGDASMAKAITGVVCYACRIASTLLLYQELMRKGIRWLIELIKDDYNETVHKKTEVVITLDFCIRNIEKTVKVYEKLMKINLEAAELGEISDIHTKLLRLSSSQGTIETSLQDIDSRLSPGGSLADAWAHQEGTHPKDRNVEKLQVLLNCMTEIYYQFKKDKAERRLAYNEEQIHKFDKQKLYYHATKAMTHFTDECVKKYEAFLNKSEEWIRKMLHLRKQLLSLTNQCFDIEEEVSKYQEYTNELQETLPQKMFTASSGIKHTMTPIYPSSNTLVEMTLGMKKLKEEMEGVVKELAENNHILERFGSLTMDGGLRNVDCL
Consider B2, for which the binding result with HA-tagged PI31 is recorded as “binds”.
